These are yes or no findings as the source states them, for the method shown.

The target in this assay is Fgr SH3 domain (UniProt P09769). The assay is described as follows: SPR; SH3 domains immobilised on one CM5 chip, ChoKα injected in triplicate, 0.1 to 30 µM, 2 min, PBS pH 7.5, 30 µL/min; steady-state KD from RUmax; both purified.

As for “Choline kinase alpha, full-length (FL) wild type (from UniProt P35790 1-457) (enzyme)”, the binding entry is “no binding (tested: 0.1 to 30 μM)”.

These data come from publication PMC6864063.
